Earlier results, collected in patent US20110306564A1, “SOLID COMPOSITION, MICROPARTICLES, MICROPARTICLE DISPERSION LIQUID, AND MANUFACTURING METHODS FOR THESE” (HAMAMATSU PHOTONICS K.K., priority 2007, published 2011).

Conditions: room temperature

- solubility in water: approximately 0.5 μg/mL
SMILES: CC(=O)O[C@H]1C(=O)[C@@]2(C)[C@H]([C@H](OC(=O)c3ccccc3)[C@]3(O)C[C@H](OC(=O)[C@H](O)[C@@H](NC(=O)c4ccccc4)c4ccccc4)C(C)=C1C3(C)C)[C@]1(OC(C)=O)CO[C@@H]1C[C@@H]2O [paclitaxel]
